## Primary screen of a compound library

Mtb cholesterol medium: 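Phenotypic screen: M. tuberculosis growth, cholesterol and DPPC medium, 4 days; the read-out is not stated. Compounds at 50 µM. Direction is inferred from retests: higher values go with more growth inhibition. About 69,000 compounds were tested under these conditions; 0.54% (about 370) showed 50% or more at least once.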
Mtb glucose medium: 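Whole-cell growth test on Mycobacterium tuberculosis, read after 3 days in glucose-containing 7H9 medium; the read-out is not stated. Compounds at 50 µM. The record gives no direction; compounds that gave an IC50 in retests scored well above the rest, so higher reads as more growth inhibition. Of about 69,000 compounds tested this way, about 760 (1.1%) reached 50% or more in at least one test.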

Results are given as percent effect. The controls that fix the scale are not given in the record; negative values are as filed. The compounds are a random part of those screened. Two or more numbers in one place are separate tests of the same structure; such repeats can differ widely.

SMILES,Mtb cholesterol medium,Mtb glucose medium
Cc1cc(C)n(CC2CCCN2CC(=O)N(C)Cc2cnn(C)c2)n1 (stereo unspecified),-13.71,-4.833
O=C(O)C(F)(F)F.[H][C@@]12CN(Cc3ccc(C)cc3)C[C@]1([H])CN(c1ncccn1)C2,26.88,3.424 and -11.05
O=C(CCn1ccccc1=O)N1CCN(Cc2cccc(Cl)c2)CC1,12.01,30.25
O=C(COCC1CC1)Nc1ncccc1I,-27.45,28.48
COc1cc(CNc2nc3c(c(=O)[nH]2)CCNC3)cc(OC)c1OC,1.167,-10.28
CCN(CC)C(=O)C1(NCc2nc(C)c(C)o2)CCCCC1,-5.66,-36.62
CCN1CCN(C2CCN(Cc3ncc(C(C)(C)C)o3)CC2)C1=O,0.8932,10.22
O=C(NCCO)Nc1ccc(Cl)cc1-n1cccc1,-9.267,-0.5811
Cc1ccsc1C(Cn1ccnc1-c1ccccc1C(=O)O)N(C)C (stereo unspecified),-31.28,16.48
CCN1CCN(S(=O)(=O)c2ncn(C)c2Cl)CC1,-20.64,-30.03 and -6.032
COc1cc(CC(=O)Nc2cccc(C(=O)N(C)C)n2)ccc1C,1.488,11.72 and 12.37
CCCC1CN(CCOc2ccccc2)C(=O)c2cccnc2O1 (stereo unspecified),-19.1,-16.44
CC(C(=O)N(C)C)S(=O)(=O)c1cc2c(cc1Cl)OCCO2 (stereo unspecified),-2.796,17.87
CC(C)c1nsc(N2CCOCC2)n1,21.71,16.18
O=C(O)C(F)(F)F.c1cnc(N2CCC3(CCCN(CC4CC4)C3)CC2)nc1,8.073,15.95
N#CCCN1CCC(=Cc2ccccc2)CC1,6.355,12.71
Cc1ccc2c(c1)C1(CCN(C(=O)C3CC3)CC1)CC2N1CCOCC1.O=C(O)C(F)(F)F (stereo unspecified),10.13,14.96
COCC(=O)N1CCC2(CCCN(Cc3cnn(C)c3)C2)C1 (stereo unspecified),-6.485,10.66
COc1ccnc(NC(=O)c2cscc2C)c1,17.05,26.22
CCCc1nc(CN(CC)Cc2ccoc2)no1,-9.508,-2.188
COc1ccccc1CNC(=O)N1CCCC(c2nncn2C)C1 (stereo unspecified),-2.572,15.62
COc1cc(C)sc1C(=O)N1CC(c2cccnc2)C1,0.6823,-17.92
CCOc1ccccc1C(CC(=O)Nc1ccc(C)cn1)NC(C)=O (stereo unspecified),0.9832,4.438
CCCn1nccc1C(=O)N1CCCC(C(=O)CCc2ccccc2)C1 (stereo unspecified),0.264 and 12.38,34.83
CN1CCN(c2cc(CNC(=O)c3ccc(=O)[nH]n3)ccn2)CC1,-13.35,-16.45
Cc1ccn(Cc2nc(C(C)OCC(C)C)no2)c(=O)c1 (stereo unspecified),-4.356,-9.79 and 4.982
O[C@@H]1CN(CC2=Cc3cc(Cl)ccc3OC2)CC[C@H]1N1CCCCCC1,46.25,63.06
O=c1c2cnc(N3CCCCC3)nc2ccn1-c1ccccc1F,6.917 and 11.2,10.74
Cc1nc(CN2CCC3(CCCO3)CCC2=O)no1 (stereo unspecified),2.885 and -1.72,4.868
COCc1cn([C@@H]2c3ccccc3C3(CCNCC3)[C@H]2O)nn1,-6.936,-3.12 and -4.17
Cc1noc(C)c1CNC(=O)N(C)C1CCN(c2ccccc2)C1=O (stereo unspecified),-20.42,10.68
O=C(CC1CCc2ccccc21)N1CCC(O)(Cn2ccnc2)CC1 (stereo unspecified),-4.026,5.647 and 9.698
Fc1ccc(CNCc2nnc3n2CC(C(F)(F)F)CC3)c(F)c1 (stereo unspecified),1.442,23.4
CC(C)CC(CNC(=O)c1cccnc1Oc1cccnc1)N(C)C (stereo unspecified),0.08026 and -0.937,-40.97
O=C(Cc1ccc2c(c1)OCCCO2)Nc1nnn[nH]1,15.62,34.46
CC(CNS(N)(=O)=O)Oc1cccc(Cl)c1 (stereo unspecified),-22.73,-7.851
CCc1nn(C)c(Cl)c1CN1CCC(Cc2nncn2C)CC1,4.18,-1.451 and -6.718
Cc1cn2c(n1)CCC(NC(=O)c1cc(C(C)C)no1)C2 (stereo unspecified),-16.63,0.05771
CCN(Cc1ccncc1)C1CCCN(C/C=C/c2ccc(F)cc2)C1 (stereo unspecified),4.39,17.34
CCn1ccnc1CN(C)c1cc(OC)ncn1,-2.39,3.002 and -15.75
Cc1cc(C)cc(NC(=O)Nc2c(O)oc3ccccc3c2=O)c1,-12.15,11.9
COC(=O)c1ccc(C(=O)N2CCc3c(ncn3C3CC3)C2)cc1,-0.3911,11.28 and -0.02641
CCC(=O)N1CCC(Cc2cnc(Nc3cnccn3)cn2)CC1,16.43,30.48
COc1cccc(CNCc2ccnc(N3CCOCC3)c2)c1OC,-7.597,-7.757 and 19.02
O=c1c2cc3c(cc2nnn1Cc1cccc(F)c1)OCCO3,-16.21,-47.36
c1ccc(-c2noc(CN3CCc4cncnc4C3)n2)nc1,5.005,-13.92
O=C(NCc1csc2ccccc12)NCC1(O)CCSC1 (stereo unspecified),8.507,-2.697
CC(C)Cc1cc(C(=O)NC(C)(C)CN2CCCCCC2)on1,5.653 and 0.8982,2.26
NC(=O)COc1ccc(C2NC(=O)CN2Cc2ccc(Br)cc2)cc1 (stereo unspecified),-10.35,13.81
[H][C@@]12CCN(S(=O)(=O)CC)[C@]1([H])CC[C@H](c1nnc(C)o1)O2,0.2555,11.47
CC(C)C(=O)N1CCCC1C(=O)Nc1ccc(F)c(F)c1 (stereo unspecified),3.008,-17.01 and 2.533
O=C(c1cc(F)ccc1O)N1CCN(C2CCSC2)CC1 (stereo unspecified),-7.318,5.866
O=C(CNC(=O)c1cc(Cl)ccn1)Nc1nccs1,-13.27,-1.137 and 4.292
CCN1CCOCC2(CCCN(C(=O)c3cnccn3)C2)C1 (stereo unspecified),-23.4 and -10.07,-5.819
[H][C@@]12CCN(S(C)(=O)=O)[C@]1([H])CC[C@@H](C(=O)NCc1cccnc1)O2,-22.01,-7.769 and -7.294
Cc1noc(C)c1-c1cncc(C2CCCN2Cc2cncnc2)n1 (stereo unspecified),1.951,-5.36
CCC(CC)c1nnc(NC(=O)N2CCCC(NC(C)=O)C2)s1 (stereo unspecified),-2.849,6.716

6 of the entries, repeated:

SMILES	Mtb cholesterol medium	Mtb glucose medium
COc1cccc(CNCc2ccnc(N3CCOCC3)c2)c1OC	-7.597	-7.757 and 19.02
CCCC1CN(CCOc2ccccc2)C(=O)c2cccnc2O1 (stereo unspecified)	-19.1	-16.44
CCC(=O)N1CCC(Cc2cnc(Nc3cnccn3)cn2)CC1	16.43	30.48
O=C(O)C(F)(F)F.[H][C@@]12CN(Cc3ccc(C)cc3)C[C@]1([H])CN(c1ncccn1)C2	26.88	3.424 and -11.05
CCCn1nccc1C(=O)N1CCCC(C(=O)CCc2ccccc2)C1 (stereo unspecified)	0.264 and 12.38	34.83
CCCc1nc(CN(CC)Cc2ccoc2)no1	-9.508	-2.188

Source: ChEMBL document CHEMBL3988442, “University of Dundee, Small-Polar-MMV Screening Library” (2021).